Measurements reported in PubChem BioAssay AID1259424 (University of Nebraska Medical Center, 2018).
Here is a random part of about 14,000 deposited reagents. 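Higher correlation or smaller distance means closer resemblance to KSR1 loss; control wells, including KSR1 knockdowns, recur on many plates.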 Not all columns of the deposit are shown. Not given: the time to read-out.

Purpose: 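Rank knockdowns across the genome by resemblance to the KSR1 depletion profile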 (primary screen)
Cell system: human HCT116 colon cancer cells
Reagent: siRNA pool against human genes, 50 nM
Measured: 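Six signature mRNAs by branched-DNA multiplex assay, scaled to two housekeeping genes and non-targeting median, log2; matched to mean KSR1 knockdown profile by Pearson correlation and euclidean distance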
Scale: mean correlation with KSR1 profile: higher = expression change more like KSR1 knockdown; mean distance from KSR1 profile: higher = expression change less like KSR1 knockdown

ERI1 (GeneID 90459)
- mean correlation with KSR1 profile: -0.467
- mean distance from KSR1 profile: 2.03

DMD (GeneID 1756)
- mean correlation with KSR1 profile: -0.218
- mean distance from KSR1 profile: 1.98

CUL9 (GeneID 23113)
- mean correlation with KSR1 profile: 0.315
- mean distance from KSR1 profile: 1.94

ARL6IP5 (GeneID 10550)
- mean correlation with KSR1 profile: -0.317
- mean distance from KSR1 profile: 1.88

CRHR1 (GeneID 1394)
- mean correlation with KSR1 profile: 0.841
- mean distance from KSR1 profile: 1.12

FXR2 (GeneID 9513)
- mean correlation with KSR1 profile: 0.111
- mean distance from KSR1 profile: 3

ZNF589 (GeneID 51385)
- mean correlation with KSR1 profile: 0.38
- mean distance from KSR1 profile: 1.39

AP1B1 (GeneID 162)
- mean correlation with KSR1 profile: -0.276
- mean distance from KSR1 profile: 4.47

ADAMTS15 (GeneID 170689)
- mean correlation with KSR1 profile: -0.425
- mean distance from KSR1 profile: 2.43

AFAP1L2 (GeneID 84632)
- mean correlation with KSR1 profile: 0.362
- mean distance from KSR1 profile: 2.11

NDUFA1 (GeneID 4694)
- mean correlation with KSR1 profile: -0.191
- mean distance from KSR1 profile: 1.85

EFNB2 (GeneID 1948)
- mean correlation with KSR1 profile: 0.277
- mean distance from KSR1 profile: 2.21

CIPC (GeneID 85457)
- mean correlation with KSR1 profile: -0.29
- mean distance from KSR1 profile: 3.99

NCOR1 (GeneID 9611)
- mean correlation with KSR1 profile: 0.376
- mean distance from KSR1 profile: 2.07

IL3 (GeneID 3562)
- mean correlation with KSR1 profile: -0.521
- mean distance from KSR1 profile: 2.03

FANCF (GeneID 2188)
- mean correlation with KSR1 profile: -0.475
- mean distance from KSR1 profile: 4.24

S100A13 (GeneID 6284)
- mean correlation with KSR1 profile: 0.194
- mean distance from KSR1 profile: 1.84

MCF2L2 (GeneID 23101)
- mean correlation with KSR1 profile: -0.43
- mean distance from KSR1 profile: 2.54

HOXB8 (GeneID 3218)
- mean correlation with KSR1 profile: -0.356
- mean distance from KSR1 profile: 4.09

MCM8 (GeneID 84515)
- mean correlation with KSR1 profile: 0.4
- mean distance from KSR1 profile: 2.27

ECRG4 (GeneID 84417)
- mean correlation with KSR1 profile: 0.557
- mean distance from KSR1 profile: 1.33

CSRNP1 (GeneID 64651)
- mean correlation with KSR1 profile: 0.0885
- mean distance from KSR1 profile: 2.27

CD4 (GeneID 920)
- mean correlation with KSR1 profile: -0.436
- mean distance from KSR1 profile: 2.73

GNE (GeneID 10020)
- mean correlation with KSR1 profile: -0.156
- mean distance from KSR1 profile: 2.31

EIF2B1 (GeneID 1967)
- mean correlation with KSR1 profile: 0.122
- mean distance from KSR1 profile: 1.84

DISP3 (GeneID 57540)
- mean correlation with KSR1 profile: -0.475
- mean distance from KSR1 profile: 2.6

TMEM50B (GeneID 757)
- mean correlation with KSR1 profile: 0.398
- mean distance from KSR1 profile: 2.82

FRMD1 (GeneID 79981)
- mean correlation with KSR1 profile: 0.669
- mean distance from KSR1 profile: 2.42

4 entries from above, sorted by “mean distance from KSR1 profile”, low to high:
S100A13 (GeneID 6284)
- mean correlation with KSR1 profile: 0.194
- mean distance from KSR1 profile: 1.84

MCF2L2 (GeneID 23101)
- mean correlation with KSR1 profile: -0.43
- mean distance from KSR1 profile: 2.54

HOXB8 (GeneID 3218)
- mean correlation with KSR1 profile: -0.356
- mean distance from KSR1 profile: 4.09

FANCF (GeneID 2188)
- mean correlation with KSR1 profile: -0.475
- mean distance from KSR1 profile: 4.24
